Measured values: the supplement of paper PMC10849652
The other results are listed elsewhere or left out.

Chains of the proteins cited; added tags and fusions are not shown. Lines headed by an entry give the natural chain unless they say otherwise; changes in a name come on top.
UniProt Q9C0F1: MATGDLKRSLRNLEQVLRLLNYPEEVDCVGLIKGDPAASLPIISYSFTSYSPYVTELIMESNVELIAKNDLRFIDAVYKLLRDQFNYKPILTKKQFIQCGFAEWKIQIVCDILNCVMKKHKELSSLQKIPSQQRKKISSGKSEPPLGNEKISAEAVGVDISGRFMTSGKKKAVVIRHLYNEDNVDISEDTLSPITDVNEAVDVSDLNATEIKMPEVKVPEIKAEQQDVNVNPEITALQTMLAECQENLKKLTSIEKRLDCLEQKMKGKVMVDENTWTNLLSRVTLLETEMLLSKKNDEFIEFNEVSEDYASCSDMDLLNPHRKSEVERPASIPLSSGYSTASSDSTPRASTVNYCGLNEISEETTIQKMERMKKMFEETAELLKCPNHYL
UniProt Q9NRR8: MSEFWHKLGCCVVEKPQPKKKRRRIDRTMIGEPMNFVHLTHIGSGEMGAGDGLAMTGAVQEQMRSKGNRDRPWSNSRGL
UniProt Q8IWY9: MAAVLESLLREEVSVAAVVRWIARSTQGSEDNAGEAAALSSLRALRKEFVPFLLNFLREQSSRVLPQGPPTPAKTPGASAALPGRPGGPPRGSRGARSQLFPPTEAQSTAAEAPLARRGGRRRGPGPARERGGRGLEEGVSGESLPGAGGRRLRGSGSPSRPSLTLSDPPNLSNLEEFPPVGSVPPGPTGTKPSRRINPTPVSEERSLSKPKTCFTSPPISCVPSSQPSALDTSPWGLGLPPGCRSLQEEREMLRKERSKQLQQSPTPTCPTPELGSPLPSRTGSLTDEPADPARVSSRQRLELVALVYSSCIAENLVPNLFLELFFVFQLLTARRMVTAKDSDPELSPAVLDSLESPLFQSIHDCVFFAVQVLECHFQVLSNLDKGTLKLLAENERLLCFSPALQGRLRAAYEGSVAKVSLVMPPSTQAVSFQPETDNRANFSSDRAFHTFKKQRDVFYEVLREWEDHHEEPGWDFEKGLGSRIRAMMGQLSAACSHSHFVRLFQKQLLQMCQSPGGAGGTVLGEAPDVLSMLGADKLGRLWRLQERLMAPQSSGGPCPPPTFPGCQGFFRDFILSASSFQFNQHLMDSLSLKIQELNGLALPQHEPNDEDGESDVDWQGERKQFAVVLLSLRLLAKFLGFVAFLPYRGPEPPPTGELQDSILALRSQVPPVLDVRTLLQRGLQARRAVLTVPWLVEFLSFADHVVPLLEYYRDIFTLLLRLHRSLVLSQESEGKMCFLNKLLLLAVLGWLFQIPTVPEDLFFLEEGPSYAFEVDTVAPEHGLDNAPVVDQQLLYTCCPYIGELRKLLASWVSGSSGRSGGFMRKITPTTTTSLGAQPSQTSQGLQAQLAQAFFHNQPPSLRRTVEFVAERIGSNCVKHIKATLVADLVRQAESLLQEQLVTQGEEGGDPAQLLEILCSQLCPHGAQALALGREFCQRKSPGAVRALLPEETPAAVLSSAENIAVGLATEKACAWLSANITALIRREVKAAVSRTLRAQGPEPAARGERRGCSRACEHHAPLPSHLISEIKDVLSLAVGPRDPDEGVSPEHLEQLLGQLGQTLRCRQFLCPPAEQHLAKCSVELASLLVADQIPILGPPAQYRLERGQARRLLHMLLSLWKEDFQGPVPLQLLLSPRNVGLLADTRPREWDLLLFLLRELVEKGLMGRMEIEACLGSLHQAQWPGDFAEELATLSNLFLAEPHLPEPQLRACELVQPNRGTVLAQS
UniProt P49454: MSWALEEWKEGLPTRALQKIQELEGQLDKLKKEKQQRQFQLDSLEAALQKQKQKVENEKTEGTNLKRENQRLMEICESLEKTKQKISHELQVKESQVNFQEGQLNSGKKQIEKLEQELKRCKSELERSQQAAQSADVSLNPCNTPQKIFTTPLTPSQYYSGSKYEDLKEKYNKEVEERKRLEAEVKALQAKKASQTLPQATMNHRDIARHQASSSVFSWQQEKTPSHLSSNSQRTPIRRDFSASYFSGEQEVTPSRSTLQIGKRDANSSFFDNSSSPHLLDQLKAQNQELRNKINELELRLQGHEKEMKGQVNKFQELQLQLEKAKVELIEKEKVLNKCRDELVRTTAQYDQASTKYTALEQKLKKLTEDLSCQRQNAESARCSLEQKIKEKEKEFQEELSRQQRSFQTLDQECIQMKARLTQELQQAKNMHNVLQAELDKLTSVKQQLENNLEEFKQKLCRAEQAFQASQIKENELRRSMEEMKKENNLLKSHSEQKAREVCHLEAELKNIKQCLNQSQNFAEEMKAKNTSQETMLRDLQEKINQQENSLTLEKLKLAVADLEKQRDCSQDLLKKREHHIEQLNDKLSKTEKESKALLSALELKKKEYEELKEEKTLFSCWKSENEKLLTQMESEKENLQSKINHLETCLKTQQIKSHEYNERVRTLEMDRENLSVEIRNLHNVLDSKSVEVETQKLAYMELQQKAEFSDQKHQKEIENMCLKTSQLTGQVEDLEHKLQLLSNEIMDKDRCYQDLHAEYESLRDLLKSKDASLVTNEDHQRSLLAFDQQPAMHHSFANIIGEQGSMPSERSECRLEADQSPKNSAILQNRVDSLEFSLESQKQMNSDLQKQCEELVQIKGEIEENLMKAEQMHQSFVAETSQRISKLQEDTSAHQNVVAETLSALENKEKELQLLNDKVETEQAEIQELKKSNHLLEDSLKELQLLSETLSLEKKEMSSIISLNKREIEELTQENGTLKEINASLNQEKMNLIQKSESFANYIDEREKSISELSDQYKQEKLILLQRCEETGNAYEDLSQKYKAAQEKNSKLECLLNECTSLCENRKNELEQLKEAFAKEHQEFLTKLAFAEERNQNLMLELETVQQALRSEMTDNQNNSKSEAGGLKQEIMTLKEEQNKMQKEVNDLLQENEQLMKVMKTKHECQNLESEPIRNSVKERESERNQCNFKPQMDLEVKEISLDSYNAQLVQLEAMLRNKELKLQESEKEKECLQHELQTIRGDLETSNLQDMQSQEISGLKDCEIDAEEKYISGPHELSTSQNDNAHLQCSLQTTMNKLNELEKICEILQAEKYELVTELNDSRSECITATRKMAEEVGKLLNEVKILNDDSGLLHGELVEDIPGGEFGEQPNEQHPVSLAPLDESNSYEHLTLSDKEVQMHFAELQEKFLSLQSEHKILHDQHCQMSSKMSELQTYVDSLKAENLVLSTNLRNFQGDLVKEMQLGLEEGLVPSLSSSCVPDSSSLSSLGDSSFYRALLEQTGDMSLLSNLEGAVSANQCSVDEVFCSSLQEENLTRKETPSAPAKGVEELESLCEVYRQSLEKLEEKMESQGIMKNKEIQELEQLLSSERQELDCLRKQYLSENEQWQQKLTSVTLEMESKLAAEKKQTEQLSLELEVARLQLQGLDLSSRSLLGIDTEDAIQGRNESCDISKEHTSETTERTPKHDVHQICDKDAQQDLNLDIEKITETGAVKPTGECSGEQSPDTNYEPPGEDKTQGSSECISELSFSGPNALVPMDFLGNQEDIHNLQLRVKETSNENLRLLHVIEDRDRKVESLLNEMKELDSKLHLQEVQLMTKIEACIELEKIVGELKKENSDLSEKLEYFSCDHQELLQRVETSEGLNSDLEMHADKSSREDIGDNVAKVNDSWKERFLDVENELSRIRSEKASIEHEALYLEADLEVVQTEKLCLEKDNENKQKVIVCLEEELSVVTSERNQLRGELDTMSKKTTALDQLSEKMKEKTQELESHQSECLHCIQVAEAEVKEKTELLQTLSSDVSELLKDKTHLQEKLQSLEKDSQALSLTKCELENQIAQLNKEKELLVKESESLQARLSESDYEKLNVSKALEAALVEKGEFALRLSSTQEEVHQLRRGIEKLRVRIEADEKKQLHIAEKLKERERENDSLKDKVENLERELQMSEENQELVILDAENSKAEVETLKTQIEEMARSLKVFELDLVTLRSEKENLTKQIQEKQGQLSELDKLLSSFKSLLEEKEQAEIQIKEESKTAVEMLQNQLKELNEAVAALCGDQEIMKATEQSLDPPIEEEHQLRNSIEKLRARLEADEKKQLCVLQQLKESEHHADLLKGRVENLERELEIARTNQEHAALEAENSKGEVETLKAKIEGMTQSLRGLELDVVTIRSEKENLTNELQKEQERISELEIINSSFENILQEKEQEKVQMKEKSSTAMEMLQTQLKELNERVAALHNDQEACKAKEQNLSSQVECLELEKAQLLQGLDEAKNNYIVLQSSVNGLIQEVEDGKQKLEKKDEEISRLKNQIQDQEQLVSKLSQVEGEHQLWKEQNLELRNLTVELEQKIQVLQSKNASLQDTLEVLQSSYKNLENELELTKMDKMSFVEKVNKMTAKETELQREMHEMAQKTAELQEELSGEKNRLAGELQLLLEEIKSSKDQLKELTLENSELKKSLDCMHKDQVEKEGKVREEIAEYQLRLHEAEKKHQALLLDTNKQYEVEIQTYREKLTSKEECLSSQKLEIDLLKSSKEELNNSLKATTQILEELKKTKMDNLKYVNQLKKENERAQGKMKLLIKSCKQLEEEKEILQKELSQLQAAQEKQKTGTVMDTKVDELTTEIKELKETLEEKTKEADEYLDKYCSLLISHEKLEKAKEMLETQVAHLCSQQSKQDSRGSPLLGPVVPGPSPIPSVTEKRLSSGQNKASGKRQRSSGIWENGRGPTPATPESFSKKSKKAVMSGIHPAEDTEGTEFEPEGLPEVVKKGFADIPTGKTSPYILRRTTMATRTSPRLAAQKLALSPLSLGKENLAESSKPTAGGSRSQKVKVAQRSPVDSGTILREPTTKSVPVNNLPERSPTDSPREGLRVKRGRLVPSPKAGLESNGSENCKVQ
UniProt Q9Y5S2: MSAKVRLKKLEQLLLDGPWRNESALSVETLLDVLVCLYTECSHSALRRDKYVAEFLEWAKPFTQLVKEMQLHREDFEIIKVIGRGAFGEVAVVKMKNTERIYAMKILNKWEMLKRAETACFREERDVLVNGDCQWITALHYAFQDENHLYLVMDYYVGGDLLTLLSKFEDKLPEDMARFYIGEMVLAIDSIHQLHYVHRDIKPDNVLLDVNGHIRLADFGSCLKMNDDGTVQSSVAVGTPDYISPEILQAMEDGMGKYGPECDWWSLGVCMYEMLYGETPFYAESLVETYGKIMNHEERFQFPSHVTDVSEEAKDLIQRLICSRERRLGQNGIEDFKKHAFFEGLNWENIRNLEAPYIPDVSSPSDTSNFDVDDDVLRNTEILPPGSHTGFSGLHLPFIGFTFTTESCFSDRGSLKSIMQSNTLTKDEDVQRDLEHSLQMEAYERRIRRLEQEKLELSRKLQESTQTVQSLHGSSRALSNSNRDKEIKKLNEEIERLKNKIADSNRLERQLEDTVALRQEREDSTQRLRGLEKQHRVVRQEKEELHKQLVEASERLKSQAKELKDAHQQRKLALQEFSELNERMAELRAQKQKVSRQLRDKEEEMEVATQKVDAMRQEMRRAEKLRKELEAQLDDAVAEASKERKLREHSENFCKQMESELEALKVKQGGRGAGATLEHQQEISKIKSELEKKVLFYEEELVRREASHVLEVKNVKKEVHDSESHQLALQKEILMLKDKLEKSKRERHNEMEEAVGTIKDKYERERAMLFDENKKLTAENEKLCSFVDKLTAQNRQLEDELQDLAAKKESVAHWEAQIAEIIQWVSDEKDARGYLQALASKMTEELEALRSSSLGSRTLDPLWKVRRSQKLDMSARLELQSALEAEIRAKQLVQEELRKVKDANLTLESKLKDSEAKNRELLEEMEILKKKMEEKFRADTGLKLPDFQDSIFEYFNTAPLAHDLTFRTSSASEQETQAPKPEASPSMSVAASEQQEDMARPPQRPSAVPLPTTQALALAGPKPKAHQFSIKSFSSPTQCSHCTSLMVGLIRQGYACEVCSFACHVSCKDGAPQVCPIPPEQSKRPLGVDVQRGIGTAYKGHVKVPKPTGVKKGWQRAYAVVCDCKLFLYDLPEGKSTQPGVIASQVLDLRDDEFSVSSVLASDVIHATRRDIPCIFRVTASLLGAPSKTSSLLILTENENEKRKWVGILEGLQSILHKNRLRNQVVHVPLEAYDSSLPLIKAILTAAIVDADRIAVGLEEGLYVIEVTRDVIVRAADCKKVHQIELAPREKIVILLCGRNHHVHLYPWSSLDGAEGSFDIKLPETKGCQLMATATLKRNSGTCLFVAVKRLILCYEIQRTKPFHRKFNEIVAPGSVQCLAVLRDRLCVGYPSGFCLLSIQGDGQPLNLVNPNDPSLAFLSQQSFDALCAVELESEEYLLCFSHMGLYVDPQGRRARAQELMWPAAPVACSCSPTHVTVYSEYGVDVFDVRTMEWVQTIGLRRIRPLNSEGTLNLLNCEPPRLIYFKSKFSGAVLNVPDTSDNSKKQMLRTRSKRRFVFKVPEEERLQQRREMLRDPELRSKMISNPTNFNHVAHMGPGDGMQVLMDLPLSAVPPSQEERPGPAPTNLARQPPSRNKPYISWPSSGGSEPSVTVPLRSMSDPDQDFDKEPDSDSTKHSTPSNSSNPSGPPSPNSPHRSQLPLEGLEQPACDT

Assays:
Assay in all cases: log2 fold change, soluble protein after heating vs DMSO (PISA); higher = thermal stabilisation; K562 lysate, 10 uM; active = over 0.2 and 3.5 SD of the protein, either way, in both replicates (recomputed)
nilotinib = compound: Cc1cn(-c2cc(NC(=O)c3ccc(C)c(Nc4nccc(-c5cccnc5)n4)c3)cc(C(F)(F)F)c2)cn1 [nilotinib]
Outline: (§1)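 Log-two fold change in thermal stability relative to solvent controls is reported from duplicates. For each sample, crude K562 extract from dounce-homogenised pellets in PBS pH 7.4 with 1 mM MgCl2, at 1 mg/mL protein, was treated with 10 μM compound for 30 min. Aliquots heated for 3 min across 48°C-58°C were pooled, brought to 0.5% NP-40 at 4°C and cleared at 21,000xg for 90 min. The supernatant was quantified by TMTpro 16plex LC-MS/MS with channel sums equalised.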

[1] = compound: Cc1nc(Nc2n[nH]c3c2CN(C(=O)N[C@H](CN(C)C)c2ccccc2)C3(C)C)c2sccc2n1
Outline: as §1

[2] = compound: Cc1ncc(-c2ccnc(Nc3ccc(S(C)(=O)=O)cc3)n2)n1C(C)C
Outline: as §1

quisinostat = compound: Cn1cc(CNCC2CCN(c3ncc(C(=O)NO)cn3)CC2)c2ccccc21 [quisinostat]
Outline: as §1

tipifarnib = compound: Cn1cncc1[C@@](N)(c1ccc(Cl)cc1)c1ccc2c(c1)c(-c1cccc(Cl)c1)cc(=O)n2C [tipifarnib]
Outline: as §1

[3] = compound: NC(=O)Nc1cc(-c2cccc(F)c2)sc1C(=O)N[C@H]1CCCNC1
Outline: as §1

[4] = compound: NC(=O)c1cnc(N[C@@H]2CCCC[C@@H]2N)nc1Nc1cccc(-n2nccn2)c1
Outline: as §1

[5] = compound: NC1(c2ccc(-c3nc4ccn5c(=O)[nH]nc5c4cc3-c3ccccc3)cc2)CCC1
Outline: as §1

dasatinib = compound: Cc1nc(Nc2ncc(C(=O)Nc3c(C)cccc3Cl)s2)cc(N2CCN(CCO)CC2)n1 [dasatinib]
Outline: as §1

[6] = compound: Cn1cc(-c2ccc3c(c2)CCN3C(=O)Cc2cccc(C(F)(F)F)c2)c2c(N)ncnc21
Outline: as §1

Measured: log2 fold change

CEFIP (UniProt Q711Q0)
inactive: nilotinib -0.004 | [1] 0.225 | [2] -0.153 | quisinostat -0.051 | tipifarnib 0.056 | [3] 0.083 | [4] -0.024 | [5] 0.117

CEP44 (UniProt Q9C0F1)
inactive: nilotinib -0.011 | [1] 0.007 | dasatinib 0.023 | [2] -0.022 | [6] -0.013 | quisinostat 0.016 | tipifarnib 0.007 | [3] 0.011 | [4] 0.017 | [5] 0.033

CDYL (UniProt Q9Y232)
inactive: nilotinib -0.002 | [1] -0.059 | dasatinib 0.02 | [2] -0.037 | [6] 0.04 | quisinostat -0.1 | tipifarnib 0.071 | [3] -0.01 | [4] 0.036 | [5] -0.028

CDK5RAP1 (UniProt Q96SZ6)
inactive: nilotinib -0.007 | [1] 0.002 | dasatinib 0.037 | [2] 0.019 | [6] 0.011 | quisinostat 0.049 | tipifarnib -0.002 | [3] -0.004 | [5] -0.013

CEP295 isoform 3 (UniProt Q9C0D2)
inactive: nilotinib 0.016 | [1] 0.046 | [2] 0.006 | quisinostat 0.017 | tipifarnib 0.062 | [3] -0.038 | [4] 0.14 | [5] 0.046

CDIPT (UniProt O14735)
inactive: nilotinib -0.019 | [1] -0.02 | dasatinib 0.036 | [2] -0.074 | [6] -0.01 | quisinostat 0.017 | tipifarnib -0.03 | [3] -0.05 | [4] 0.004 | [5] 0.047

CDC6 (UniProt Q99741)
inactive: nilotinib -0.014 | [1] 0.011 | dasatinib 0.075 | [2] -0.015 | [6] -0.136 | quisinostat 0.382 | tipifarnib -0.024 | [3] -0.091 | [5] -0.107

CEP83 (UniProt Q9Y592)
inactive: nilotinib 0.011 | [1] 0.009 | [2] 0.031 | quisinostat 0.013 | tipifarnib -0.167 | [3] 0.004 | [4] 0.034 | [5] -0.195

CDC42SE1 (UniProt Q9NRR8)
inactive: nilotinib 0.145 | [1] 0.373 | [2] -0.303 | quisinostat 0.023 | tipifarnib 0.027 | [3] 0.024 | [4] 0.088

CFDP1 (UniProt Q9UEE9)
inactive: nilotinib -0.008 | [1] 0.051 | dasatinib 0.029 | [2] 0.035 | [6] 0.009 | quisinostat -0.102 | tipifarnib 0.013 | [3] -0.038 | [4] -0.013 | [5] -0.026

CEP152 (UniProt O94986)
inactive: nilotinib -0.058 | [1] 0.108 | dasatinib 0.012 | [2] -0.014 | [6] -0.017 | tipifarnib 0.02 | [3] 0.058 | [5] 0.112
active: quisinostat -0.413

CDAN1 (UniProt Q8IWY9)
inactive: nilotinib -0.029 | [1] 0.022 | dasatinib -0.055 | [2] -0.014 | [6] -0.037 | quisinostat -0.09 | tipifarnib -0.026 | [3] 0.066 | [4] 0.017 | [5] -0.032

CDKN2C (UniProt P42773)
inactive: nilotinib 0.068 | [1] 0.1 | dasatinib 0.022 | [2] 0.175 | [6] 0.055 | quisinostat 0.014 | tipifarnib 0.08 | [3] -0.075 | [4] -0.04 | [5] 0.065

CENPF (UniProt P49454)
inactive: nilotinib 0.007 | [1] 0.005 | dasatinib -0.001 | [2] 0.025 | [6] 0.006 | quisinostat -0.019 | tipifarnib -0.017 | [3] -0.001 | [4] -0.018 | [5] -0.003

CENPQ (UniProt Q7L2Z9)
inactive: nilotinib -0.025 | [1] 0.044 | dasatinib 0 | [2] -0.036 | [6] -0.015 | quisinostat 0.07 | tipifarnib -0.076 | [3] 0.047 | [4] 0.164 | [5] -0.107

CEP350 (UniProt Q5VT06)
inactive: nilotinib -0.015 | [1] -0.014 | dasatinib -0.052 | [2] -0.03 | [6] -0.003 | quisinostat 0.102 | tipifarnib 0.035 | [3] 0.014 | [4] 0.01 | [5] 0.006

CDK6 (UniProt Q00534)
inactive: nilotinib 0.019 | [1] -0.004 | dasatinib 0.036 | [2] 0.061 | [6] 0.014 | quisinostat -0.01 | tipifarnib 0.042 | [3] -0.022 | [4] -0.006 | [5] 0

CEP250 (UniProt Q9BV73)
inactive: nilotinib 0.038 | [1] -0.024 | dasatinib -0.005 | [2] 0.02 | [6] 0.138 | quisinostat -0.006 | tipifarnib -0.011 | [3] 0.02 | [4] 0.06 | [5] 0.012

CENPH (UniProt Q9H3R5)
inactive: nilotinib 0.006 | [1] 0.02 | dasatinib 0.02 | [2] -0.019 | [6] 0 | quisinostat -0.071 | tipifarnib 0.004 | [3] 0.042 | [4] 0.009 | [5] -0.006

Eight neighbouring records already listed, for reference:
CDAN1 (UniProt Q8IWY9)
inactive: nilotinib -0.029 | [1] 0.022 | dasatinib -0.055 | [2] -0.014 | [6] -0.037 | quisinostat -0.09 | tipifarnib -0.026 | [3] 0.066 | [4] 0.017 | [5] -0.032

CDKN2C (UniProt P42773)
inactive: nilotinib 0.068 | [1] 0.1 | dasatinib 0.022 | [2] 0.175 | [6] 0.055 | quisinostat 0.014 | tipifarnib 0.08 | [3] -0.075 | [4] -0.04 | [5] 0.065

CENPF (UniProt P49454)
inactive: nilotinib 0.007 | [1] 0.005 | dasatinib -0.001 | [2] 0.025 | [6] 0.006 | quisinostat -0.019 | tipifarnib -0.017 | [3] -0.001 | [4] -0.018 | [5] -0.003

CENPQ (UniProt Q7L2Z9)
inactive: nilotinib -0.025 | [1] 0.044 | dasatinib 0 | [2] -0.036 | [6] -0.015 | quisinostat 0.07 | tipifarnib -0.076 | [3] 0.047 | [4] 0.164 | [5] -0.107

CEP350 (UniProt Q5VT06)
inactive: nilotinib -0.015 | [1] -0.014 | dasatinib -0.052 | [2] -0.03 | [6] -0.003 | quisinostat 0.102 | tipifarnib 0.035 | [3] 0.014 | [4] 0.01 | [5] 0.006

CDK6 (UniProt Q00534)
inactive: nilotinib 0.019 | [1] -0.004 | dasatinib 0.036 | [2] 0.061 | [6] 0.014 | quisinostat -0.01 | tipifarnib 0.042 | [3] -0.022 | [4] -0.006 | [5] 0

CEP250 (UniProt Q9BV73)
inactive: nilotinib 0.038 | [1] -0.024 | dasatinib -0.005 | [2] 0.02 | [6] 0.138 | quisinostat -0.006 | tipifarnib -0.011 | [3] 0.02 | [4] 0.06 | [5] 0.012

CENPH (UniProt Q9H3R5)
inactive: nilotinib 0.006 | [1] 0.02 | dasatinib 0.02 | [2] -0.019 | [6] 0 | quisinostat -0.071 | tipifarnib 0.004 | [3] 0.042 | [4] 0.009 | [5] -0.006

The list continues.

CENPM (UniProt Q9NSP4)
inactive: nilotinib -0.188 | [1] 0.172 | dasatinib -0.034 | [2] 0.106 | [6] -0.003 | quisinostat -0.26 | tipifarnib -0.176 | [3] 0.007 | [5] -0.007

CENPP (UniProt Q6IPU0)
inactive: nilotinib 0.085 | [1] 0.269 | dasatinib 0.022 | [2] 0.008 | [6] 0.277 | quisinostat 0.002 | tipifarnib 0.104 | [3] 0.061 | [4] -0.095 | [5] 0.086

CDK7 (UniProt P50613)
inactive: nilotinib -0.011 | [1] 0.155 | dasatinib -0.009 | [2] -0.026 | [6] -0.049 | quisinostat 0.051 | tipifarnib 0.03 | [3] 0.008 | [4] -0.009 | [5] -0.014

CDCA8 (UniProt Q53HL2)
inactive: nilotinib 0.03 | [1] -0.002 | dasatinib 0.012 | [2] -0.277 | [6] -0.011 | tipifarnib 0.046 | [5] -0.051

CDC14A isoform 2 (UniProt Q9UNH5)
inactive: nilotinib -0.076 | [1] 0.07 | [2] -0.001 | quisinostat -0.174 | tipifarnib -0.019 | [3] 0.083 | [4] 0.101

CENPV (UniProt Q7Z7K6)
inactive: [1] -0.184 | [2] 0.816 | quisinostat 0.038 | tipifarnib 0.08 | [3] -0.077
active: nilotinib 1.5

CFL1 (UniProt P23528)
inactive: nilotinib 0.028 | [1] 0.004 | dasatinib 0.038 | [2] 0.024 | [6] 0.018 | quisinostat 0.07 | tipifarnib 0.04 | [3] -0.031 | [4] -0.008 | [5] 0.031

CETN2 (UniProt P41208)
inactive: nilotinib -0.026 | [1] 0.037 | dasatinib -0.016 | [2] -0.004 | [6] 0.002 | quisinostat 0.074 | tipifarnib 0.008 | [3] -0.001 | [4] -0.005 | [5] -0.026

CDK17 isoform 2 (UniProt Q00537)
inactive: nilotinib 0.061 | [1] 0.117 | dasatinib -0.068 | [2] 0.096 | [6] 0.011 | quisinostat -0.069 | tipifarnib -0.423 | [3] -0.057 | [5] 0.068

CEP57L1 (UniProt Q8IYX8)
inactive: nilotinib 0.246 | [1] -0.129 | dasatinib 0 | [2] -0.014 | [6] 0.34 | quisinostat -0.101 | tipifarnib -0.015 | [3] 0.041 | [5] 0.031

CEBPZOS (UniProt A8MTT3)
inactive: nilotinib 0.069 | [1] -0.01 | dasatinib 0.053 | [2] 0.024 | [6] 0.044 | quisinostat 0.02 | tipifarnib -0.017 | [3] -0.039 | [4] -0.004 | [5] -0.008

CFAP20 (UniProt Q9Y6A4)
inactive: nilotinib -0.021 | [1] 0.008 | dasatinib 0.026 | [2] -0.001 | [6] -0.02 | quisinostat -0.05 | tipifarnib -0.026 | [3] 0.016 | [4] -0.01 | [5] 0.004

CEP63 (UniProt Q96MT8)
inactive: nilotinib 0.286 | [1] -0.195 | dasatinib 0.166 | [2] -0.048 | [6] -0.105 | tipifarnib 0.117 | [4] -0.034 | [5] -0.137

CD97 (UniProt P48960)
inactive: nilotinib -0.015 | [1] 0.032 | dasatinib -0.007 | [2] -0.055 | [6] -0.048 | quisinostat -0.074 | tipifarnib -0.013 | [3] 0.009 | [4] -0.001 | [5] 0.279

CDC42BPB (UniProt Q9Y5S2)
inactive: nilotinib -0.009 | [1] -0.007 | dasatinib -0.154 | [2] -0.016 | [6] -0.037 | quisinostat -0.227 | tipifarnib 0.007 | [3] -0.028 | [4] 0.02 | [5] -0.179
